Results deposited as PubChem BioAssay AID504784 (Drosophila RNAi Screening Center, 2011).
In all, the deposit lists about 17,000 reagents; shown is an unselected part of those that have a named target and a result. 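Each column is one replicate's B-score; the combined score over replicates was not deposited, so single values may mislead.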 A plus sign joins genes that one reagent is predicted to hit.

- Screen: 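Genome-wide knock-down for genes giving too much or too little stored lipid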 (primary screen)
- Cell system: Drosophila Kc167 embryonic cells
- Reagent: long dsRNA against Drosophila genes, about 250 ng dsRNA per well
- Duration: 4 days
- Conditions: cells fed 400 µM oleic acid bound to BSA
- Detection: 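Cells imaged and segmented; ratio of lipid droplet area to nuclear area, log-transformed, then normalised as a B-score over the screen; higher means more stored lipid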
- Scale: droplet/nuclear area B-score: higher = more stored lipid (overstorage)

| gene | DRSC id | droplet/nuclear area B-score, replicate 1 | droplet/nuclear area B-score, replicate 2 | droplet/nuclear area B-score, replicate 3 |
| --- | --- | --- | --- | --- |
| CG4477 | DRSC10425 | -0.556 | -0.13 | – |
| CG31446 | DRSC13111 | 1.2 | 0.959 | – |
| LManII | DRSC01986 | 1.42 | 0.917 | – |
| GATAe | DRSC14223 | -2.33 | -2.44 | -0.41 |
| GATAe | DRSC23209 | 0.619 | -0.406 | – |
| CG14196 | DRSC19551 | – | 1 | – |
| galene | DRSC08640 | -0.6 | -0.714 | – |
| galene | DRSC08641 | 0.26 | 0.129 | – |
| NtR | DRSC04628 | -0.0274 | -0.0381 | – |
| Mst89B | DRSC16748 | 1.21 | -0.962 | – |
| Vmat | DRSC06961 | -1.1 | -0.425 | – |
| Vmat | DRSC06962 | 1.92 | -0.291 | – |
| Vmat | DRSC22223 | -1.69 | -0.582 | – |
| Lk | DRSC10022 | 0.0584 | 0.652 | – |
| skl | DRSC10050 | -1.41 | 0.0398 | – |
| Vha55 | DRSC16896 | 0.959 | 0.958 | – |
| CG7768 | DRSC10914 | 0.76 | -0.325 | -0.103 |
| TfIIFalpha | DRSC12608 | 0.126 | -0.0174 | – |
| CG10950 | DRSC06020 | 0.395 | 0.31 | – |
| NdufA3 | DRSC18431 | -1.03 | -0.0189 | 0.62 |
| ssh | DRSC16730 | 1.16 | 1.49 | – |
| CG3224 | DRSC18295 | 0.359 | -0.668 | – |
| L2HGDH | DRSC02082 | 0.218 | -1.2 | – |
| PH4alphaSG2 | DRSC15037 | -2.3 | -1.18 | – |
| ArgRS-m | DRSC14186 | 0.671 | 1.59 | -1.7 |
| CG10730 | DRSC02102 | 0.437 | 1.66 | – |
| mael | DRSC11894 | -0.965 | 0.0187 | -0.667 |
| CG31058 (retired record) | DRSC15840 | 0.0247 | -0.439 | – |
| CG31058 (retired record) | DRSC22987 | 0.251 | 0.00455 | – |
| NimC4 | DRSC01945 | 0.974 | 0.0909 | – |
| Pdp | DRSC17825 | -0.462 | -3.05 | -0.573 |
| Grik | DRSC15846 | -1.01 | -0.264 | – |
| Grik | DRSC15847 | -0.962 | 0.438 | – |
| CG11523 | DRSC11669 | 0.187 | 0.0428 | 0.359 |
| Fie | DRSC08158 | -1.61 | 0.542 | – |
| Twdlalpha | DRSC19914 | -0.558 | 0.0253 | – |
| KP78b + KP78a | DRSC23338 | 0.675 | -0.107 | – |
| KP78b + KP78a | DRSC23341 | -0.693 | 0.408 | – |
| ACXB | DRSC00845 | 0.176 | -0.417 | – |
| RpL37-2 | DRSC04584 | 0.71 | 0.154 | – |
| Or85c | DRSC16766 | 0.106 | 0.0369 | – |
| Twdlbeta | DRSC07310 | -0.674 | 2.32 | – |
| CG16758 | DRSC07984 | -0.541 | -0.094 | – |
| CG16758 | DRSC08492 | 0.0225 | – | – |
| Hsp60B | DRSC00542 | -0.139 | -0.244 | – |
| CG43658 | DRSC20111 | -0.052 | 0.842 | – |
| ND-B14 | DRSC07029 | -0.655 | 1.37 | – |
| CG17528 | DRSC07761 | 0.562 | 0.0274 | – |
| CG30357 | DRSC22472 | 0.141 | 0.801 | – |
| pwn | DRSC06035 | 0.337 | 0.659 | 0.35 |
| rdog | DRSC14431 | -0.961 | 2.32 | – |
| Octbeta2R | DRSC15350 | 0.196 | -1.2 | – |
| Octbeta2R | DRSC16165 | 0.461 | 0.137 | – |
| CG3795 | DRSC18593 | -0.346 | – | – |
| AANATL3 | DRSC02089 | 1.56 | -0.143 | – |
| CG9289 | DRSC03187 | -1.72 | 2 | – |
| Mrtf | DRSC08263 | 0.0158 | -0.0576 | – |
| Mrtf | DRSC08410 | 0.693 | 0.468 | – |
| Mrtf | DRSC08411 | -0.478 | 0.749 | – |
| Mrtf | DRSC23194 | -0.042 | 0.529 | – |
| jing | DRSC04923 | 0.0414 | 0.109 | – |
| jing | DRSC05000 | -1.21 | -0.395 | – |
| CG11414 | DRSC04110 | 1.96 | -0.106 | – |
| Prp18 | DRSC16802 | 1.89 | 4.43 | – |
| Sf3b6 | DRSC09972 | -0.419 | -1.35 | – |
| Atg7 | DRSC05741 | -0.689 | 0.826 | – |
| Atg7 | DRSC06937 | 0.605 | 1.41 | – |
| MED22 | DRSC18175 | -0.14 | -0.804 | – |
| CG12241 | DRSC14481 | 0.0591 | 1.01 | – |
| CG9902 | DRSC20212 | 0.646 | 0.966 | – |
| CG5984 | DRSC15930 | -1.04 | -1.16 | – |
| Sry-beta | DRSC16868 | 0.959 | – | – |
| HDAC4 | DRSC19780 | 0.289 | -0.107 | 0.0189 |
| ap | DRSC04917 | -0.935 | -1.59 | – |
| Tsp29Fb | DRSC03233 | -0.404 | 1.61 | – |
| oaf | DRSC00831 | 0.65 | -0.893 | – |
| JYalpha | DRSC17224 | -1.17 | -2.98 | – |
| CG17715 | DRSC11950 | 1.02 | 0.804 | – |
| CG12105 | DRSC08255 | -0.768 | – | – |
| ATbp | DRSC20906 | 0.74 | 1.71 | – |
| CG7194 | DRSC10784 | -0.582 | -1.14 | – |
| CG5116 | DRSC15720 | 2.73 | 0.0236 | – |
| lectin-29Ca | DRSC02635 | -0.729 | 0.267 | – |
